Data: PMC3217009
Results are given in words; binding and its absence hold for the method and conditions named. Binding seen in cells or lysates may run through a third protein. Some results given as binding are weak or reduced against the parent protein; the word gives no strength.

The chains behind the UniProt entries cited, without tags or fusion partners.
UniProt O35718: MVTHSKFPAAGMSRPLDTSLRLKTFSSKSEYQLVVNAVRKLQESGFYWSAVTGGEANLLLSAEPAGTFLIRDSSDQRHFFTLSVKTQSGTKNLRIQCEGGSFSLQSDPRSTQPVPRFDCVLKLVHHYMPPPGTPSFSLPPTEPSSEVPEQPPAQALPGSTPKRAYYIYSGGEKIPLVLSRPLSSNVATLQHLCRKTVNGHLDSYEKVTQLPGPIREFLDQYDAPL
UniProt Q04207: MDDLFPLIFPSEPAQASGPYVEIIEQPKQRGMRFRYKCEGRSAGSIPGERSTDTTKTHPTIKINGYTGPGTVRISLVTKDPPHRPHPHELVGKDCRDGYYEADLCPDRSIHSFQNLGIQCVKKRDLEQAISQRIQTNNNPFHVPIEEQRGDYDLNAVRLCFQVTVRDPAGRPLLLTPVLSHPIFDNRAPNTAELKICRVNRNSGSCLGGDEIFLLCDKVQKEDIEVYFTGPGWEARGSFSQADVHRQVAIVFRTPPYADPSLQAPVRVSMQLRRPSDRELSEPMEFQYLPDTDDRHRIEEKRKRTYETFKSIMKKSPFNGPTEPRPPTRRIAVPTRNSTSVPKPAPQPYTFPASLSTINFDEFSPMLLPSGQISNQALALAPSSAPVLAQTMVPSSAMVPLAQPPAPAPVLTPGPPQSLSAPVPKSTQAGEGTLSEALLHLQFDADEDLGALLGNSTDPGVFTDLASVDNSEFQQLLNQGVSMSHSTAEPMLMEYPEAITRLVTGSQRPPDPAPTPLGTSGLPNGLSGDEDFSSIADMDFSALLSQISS

Target: SOCS3 (mouse (endogenous in RAW264.7)) (UniProt O35718)
Assay: co-IP; lysate of RAW264.7 cells treated with rmMFG-E8 (500 ng/mL) for 2 h or untreated; lysis in 150 mM NaCl, 1% Nonidet P-40, 50 mM Tris HCl pH 8.0, 1 mM PMSF; pre-cleared extract (80-100 µg protein) immunoprecipitated overnight at 4°C with anti-mouse SOCS3 Ab, protein G beads; Western blot with anti-p65 Ab

Q: With NF-κB p65 (from UniProt Q04207 1-549) as the substance, how does the binding read?
A: binds
